US6369109B1, “Betulinic acid and derivatives thereof useful for the treatment of neuroectodermal tumor” (Deutsches Krebsforschungszentrum Stiftung des Offentlichen …, priority 1998, dated 2002)
At least one compound was matched to its structure with a doubt left.

Amino acid sequences for entries named in this document (tags omitted). Residues count along the entry.
UniProt Q14790, 217-479: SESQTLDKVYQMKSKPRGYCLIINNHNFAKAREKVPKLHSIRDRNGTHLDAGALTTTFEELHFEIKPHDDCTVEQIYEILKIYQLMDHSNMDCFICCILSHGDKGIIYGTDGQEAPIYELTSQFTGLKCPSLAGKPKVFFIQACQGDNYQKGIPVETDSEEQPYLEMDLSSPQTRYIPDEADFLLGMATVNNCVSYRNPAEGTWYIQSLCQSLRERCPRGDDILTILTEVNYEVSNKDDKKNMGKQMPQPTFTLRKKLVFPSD

Experiments:
[1] = system: caspase activity in SH-EP neuroblastoma cells; experiment: Caspase activity by FACS with fluorogenic substrate Val-Ala-Asp-[2(4-methoxynaphthylamide)]; format: cell-based, human; conditions: FIG. 2A
[2] = system: mitochondria isolated from the B lymphoblastoid cell line SKW6.4; experiment: Mitochondrial PT and nuclear fragmentation by treated isolated mitochondria; format: biochemical; conditions: betulinic acid-treated isolated mitochondria
[3] = system: doxorubicin-resistant SH-EP^DoxoR cells; experiment: Specific apoptosis in resistant cells, FACS of propidium iodide-stained nuclei; format: cell-based, human; conditions: 10 μg/ml betulinic acid or 0.5 μg/ml doxorubicin, 72 h; FIG. 6A
Description: (§1) Neuroblastoma (SH-EP, IMR-32, Kelly, and LAN-5, kindly provided by Professor M. Schwab, German Cancer Research Center, Heidelberg, Germany), medulloblastoma cells (Daoy, kindly provided by Dr. T. Pietsch, Department of Neuropathology, University of Bonn Medical Center, Bonn, Germany), Ewing's sarcoma cells (A17/95, kindly provided by Dr. U. Anderer, Institute of Pathology, Humboldt University, Berlin, Germany), melanoma (A-378), breast carcinoma (MCF-71), colon carcinoma (HT-29), small cell lung carcinoma (H-126), renal cell carcinoma (KTCTL-26, kindly provided by H. Lörke, German Cancer Research Center, Heidelberg, Germany) and T-cell leukemia (CEM) cells were cultured in RPMI 1640 (Life Technologies, Inc., Eggenstein, Germany) supplemented with 10% heat-inactivated fetal bovin serum (FCS) from Conco. […]
(§2) Quantification of DNA fragmentation was performed by FACS analysis of propidium iodide stained nuclei as described in Nicoletti et al, 1991, J. Immunol. […] Cells were analyzed for DNA content by flow. cytometry (FACScan, Becton Dickinson, Heidelberg, Germany) using CELLQuest software. […] Cells were analyzed by flow cytometry (FAC-Scan. Becton Dickinson) using CELLQuest software.
(§3) SH-EP neuroblastoma cells (▪). […] Specific apoptosis was determined and calculated as described in the legend to FIG. 1A. […]

[4] = system: CD95-resistant SH-EP^CD95R cells; experiment: as above; format: cell-based, human; conditions: 10 μg/ml betulinic acid or 0.5 μg/ml doxorubicin, 72 h; FIG. 6A
Description: as §1, §2, §3

[5] = system: colon carcinoma (HT-29); experiment: Western blot of FLICE and PARP cleavage; format: cell-based; conditions: 10 μg/ml, 24 h; FIG. 6B
[6] = system: medulloblastoma (Daoy); experiment: Western blot of FLICE and PARP cleavage; format: cell-based; conditions: 10 μg/ml, 24 h; FIG. 6B
[7] = system: Ewing's sarcoma (A17/95); experiment: Western blot of FLICE and PARP cleavage; format: cell-based; conditions: 10 μg/ml, 24 h; FIG. 6B
[8] = biological target: T1, FLICE (caspase-8) (Homo sapiens, UniProt Q14790); experiment: In vitro cleavage assay of in vitro-translated 35S-labeled FLICE (caspase-8); format: biochemical; conditions: data not shown
T1 construct: made in house

Q: With C=C(C)[C@@H]1CC[C@]2(C(=O)O)CC[C@]3(C)[C@H](CC[C@@H]4[C@@]5(C)CC[C@H](O)C(C)(C)[C@@H]5CC[C@]43C)[C@@H]12 [betulinic acid, 3β-3-hydroxylup-20(29)-en-28-oic acid] as the compound, how does the caspase activity ([1]; 1-50 μg/ml) read?
A: strong increase

Q: What about the “time of peak caspase activity after addition” value [1] of the same compound?
A: 18 h

Q: And the “mitochondrial PT and nuclear fragmentation” value [2]?
A: triggered mitochondrial PT and mediated nuclear fragmentation

Q: What about the “response of doxorubicin-resistant cells (specific apoptosis)” value [3] of the same compound?
A: responsive toward betulinic acid

Q: And the “response of anti-CD95-resistant cells (specific apoptosis)” value [4]?
A: responsive toward betulinic acid

Q: And the “cleavage of FLICE and PARP” value [5]?
A: but not in tumor cells resistant to betulinic acid

Q: And the “cleavage of FLICE and PARP” value [6]?
A: also processed

Q: And the “cleavage of FLICE and PARP” value [7]?
A: also processed

Q: What about the “direct cleavage of in vitro-translated 35S-labeled FLICE” value ([8]; 24 h at 4 or 37° C.) of the same compound?
A: no cleavage products were detected

Q: And the “direct cleavage of in vitro translated, radiolabeled caspase-8” value ([8]; Example 3)?
A: no cleavage products were detected
